Data on one molecule can be found in article PMC10287930.

Amino acid sequences for entries named in this document (tags omitted). Residues count along the entry.
UniProt P02769, residues 25-607: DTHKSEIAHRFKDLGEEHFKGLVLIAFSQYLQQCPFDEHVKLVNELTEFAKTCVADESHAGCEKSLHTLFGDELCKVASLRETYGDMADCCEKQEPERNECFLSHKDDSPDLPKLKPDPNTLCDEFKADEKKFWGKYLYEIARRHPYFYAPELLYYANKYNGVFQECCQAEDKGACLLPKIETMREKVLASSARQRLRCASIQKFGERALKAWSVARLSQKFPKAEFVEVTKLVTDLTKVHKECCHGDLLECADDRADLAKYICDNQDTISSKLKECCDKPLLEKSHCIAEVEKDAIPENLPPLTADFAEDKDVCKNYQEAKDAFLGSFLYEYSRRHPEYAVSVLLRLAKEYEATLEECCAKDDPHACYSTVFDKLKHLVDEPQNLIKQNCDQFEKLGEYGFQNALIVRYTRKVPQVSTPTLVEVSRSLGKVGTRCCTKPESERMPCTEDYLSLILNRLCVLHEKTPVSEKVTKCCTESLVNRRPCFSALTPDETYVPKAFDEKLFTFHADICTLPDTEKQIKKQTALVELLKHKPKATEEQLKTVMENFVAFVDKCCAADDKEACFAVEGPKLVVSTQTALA
UniProt P0ABS5: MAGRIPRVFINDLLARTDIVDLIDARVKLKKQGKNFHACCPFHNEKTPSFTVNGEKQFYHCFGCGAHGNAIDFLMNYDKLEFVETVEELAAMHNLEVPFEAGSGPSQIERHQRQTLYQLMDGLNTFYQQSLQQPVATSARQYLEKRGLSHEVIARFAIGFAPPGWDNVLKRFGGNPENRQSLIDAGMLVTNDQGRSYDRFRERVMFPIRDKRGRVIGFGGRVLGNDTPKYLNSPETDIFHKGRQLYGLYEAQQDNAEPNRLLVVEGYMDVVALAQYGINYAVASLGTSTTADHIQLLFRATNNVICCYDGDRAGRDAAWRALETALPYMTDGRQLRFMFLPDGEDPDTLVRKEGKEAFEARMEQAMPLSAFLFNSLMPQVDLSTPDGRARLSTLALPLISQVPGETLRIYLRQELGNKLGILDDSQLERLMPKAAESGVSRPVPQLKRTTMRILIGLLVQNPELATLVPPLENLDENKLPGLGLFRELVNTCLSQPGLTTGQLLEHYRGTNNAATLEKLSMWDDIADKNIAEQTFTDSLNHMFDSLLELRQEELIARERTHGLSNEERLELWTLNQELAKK
UniProt P0AGE0: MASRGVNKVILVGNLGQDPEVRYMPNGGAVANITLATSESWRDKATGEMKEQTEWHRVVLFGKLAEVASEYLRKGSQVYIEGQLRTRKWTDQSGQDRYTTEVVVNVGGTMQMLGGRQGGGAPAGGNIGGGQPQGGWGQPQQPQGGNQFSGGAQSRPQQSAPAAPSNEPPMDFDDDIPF

These are yes or no findings as the source states them, for the method shown. Some binding calls cover weakened binding; strength is not graded here.

Assay in all cases: far-Western, overlay or dot blot; two-fold dilutions of the partner proteins spotted (54 to 1.7 pmol) on nitrocellulose; blocked with 5% milk PBS-T; 0.2 μM purified RecF in 5% milk PBS-T overnight at 4°C; detected with anti-RecF; control membrane without RecF subtracted; both purified
For experiment [1], the target named is BSA (bovine (by the name BSA)) (UniProt P02769).
Experiment [2] concerns the target DnaG RNA primase (purified) (E. coli) (UniProt P0ABS5).
Substrate in experiment [3]: SSB protein (purified) (E. coli) (UniProt P0AGE0)

B1: RecF protein (purified) (protein, UniProt P0A7H0 1-357)
chain: MSLTRLLIRDFRNIETADLALSPGFNFLVGANGSGKTSVLEAIYTLGHGRAFRSLQIGRVIRHEQEAFVLHGRLQGEERETAIGLTKDKQGDSKVRIDGTDGHKVAELAHLMPMQLITPEGFTLLNGGPKYRRAFLDWGCFHNEPGFFTAWSNLKRLLKQRNAALRQVTRYEQLRPWDKELIPLAEQISTWRAEYSAGIAADMADTCKQFLPEFSLTFSFQRGWEKETEYAEVLERNFERDRQLTYTAHGPHKADLRIRADGAPVEDTLSRGQLKLLMCALRLAQGEFLTRESGRRCLYLIDDFASELDDERRGLLASRLKATQSQVFVSAISAEHVIDMSDENSKMFTVEKGKITD
Consider B1, for which the values for the binding result in experiment [1], in experiment [2] and in experiment [3] were “no binding (tested: 0.2 μM RecF; 54 to 1.7 pmol spotted)”, “binds weakly” and “no binding (tested: 0.2 μM RecF; 54 to 1.7 pmol spotted)”, respectively.
